# Library screen at single concentrations

Source: ChEMBL document CHEMBL3988442, “University of Dundee, Small-Polar-MMV Screening Library” (2021).

T. brucei: 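Whole-parasite assay of Trypanosoma brucei over 72 hours; the read-out is not stated. Concentration: 30 µM. Direction is inferred from retests: higher values go with stronger inhibition. Values scatter widely below zero; nearly all retest evidence comes from the higher of the two concentrations used. Of about 64,000 compounds tested this way, about 940 (1.5%) reached 50% or more in at least one test.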
Toxoplasma: 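Assay of Toxoplasma gondii numbers, read through their beta-galactosidase reporter with a colour substrate. Compounds at 10 µM. The record gives no direction; the compounds picked for IC50 retests had high values, so higher reads as fewer parasites. Size under these conditions: about 67,000 compounds, about 260 of them at 50% or above in at least one test.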

Each number is a percent effect as filed. The record does not define 0% and 100%; most values in the screen are far below 50% and negative numbers occur (in some assays of this library far below -100). Compounds were drawn at random from those tested, without regard to their results.

Result for CCN1CCN(C(=O)NCc2cccnc2-n2cccn2)CC1 was T. brucei: -24.08%; Toxoplasma: -12.54%.
Result for c1csc(-c2nc(CNC3CCc4ncnn4C3)co2)c1 (centres undefined) was T. brucei: 9.536%; Toxoplasma: 0.9529%.
Result for Cn1ccc(CN2CCC(CC(=O)NC3CCCC3)CC2)cc1=O was T. brucei: -14.98%; Toxoplasma: -24.73%.
Result for [H][C@@]12CCN(c3ccc(C)nn3)C[C@]1([H])[C@H](C(=O)NCCOC)CCO2 was T. brucei: -17.25%; Toxoplasma: 16.34%.
Result for O=C(Nc1ccccc1)C1CCCN(c2cc(-n3cncn3)ncn2)C1 (centres undefined) was T. brucei: 12.2%; Toxoplasma: 3.604%.
Result for CC(C)Nc1cc(-c2c[nH]nc2C2CCN(C(=O)C3CCC3)C2)ccn1 (centres undefined) was T. brucei: 100.4%; Toxoplasma: 95.4%.
Result for CNc1ncccc1CN1CCN(C)CC(C(=O)N(C)C)C1 (centres undefined) was T. brucei: -16.67%; Toxoplasma: 6.46%.
Result for COc1ccccc1CCNC(=O)CNCC1CN(C)CCO1 (centres undefined) was T. brucei: -2.503%; Toxoplasma: 3.557%.
Result for CN1CCC(Cc2cc(Nc3ncccn3)ncn2)CC1 was T. brucei: 10.51%; Toxoplasma: -3.395%.
Result for Cc1cc(N[C@H]2CCCC[C@@H]2O)n2nccc2n1 was T. brucei: -15.25%; Toxoplasma: 4.748%.
Result for CC1(C)CN(C(=O)c2ccccc2-n2cncn2)CC1(C)O (centres undefined) was T. brucei: -30.74%; Toxoplasma: -5.134%.
Result for Cc1cc(C(F)(F)F)nc(CCNC(C)Cn2nc(C)cc2C)n1 (centres undefined) was T. brucei: -44.38%; Toxoplasma: 9.852%.
Result for CCc1nnc2n1CCN(C(=O)c1ccc3c(c1)nnn3C)C2 was T. brucei: 3.029%; Toxoplasma: -8.238%.
Result for CCn1cc(CN(C)Cc2cnn(-c3ccc(F)cc3)c2)cn1 was T. brucei: -40.15%; Toxoplasma: 13.94%.
Result for Cc1ccc(C(C(=O)NCCc2nc(C)cc(=O)[nH]2)N(C)C)cc1 (centres undefined) was T. brucei: -34.64%; Toxoplasma: -4.448%.
Result for O=C(NCCc1c[nH]c2ccccc12)C1CCC(Cn2cnnn2)CC1 (centres undefined) was T. brucei: -21.28%; Toxoplasma: -6.07%.
Result for C=C(C)CSc1nnc(CCNC(=O)OC(C)(C)C)o1 was T. brucei: -23.85%; Toxoplasma: 11.55%.
Result for CC(C)Nc1ncnc2c1CCN(C(=O)c1ccccc1F)CC2.O=C(O)C(F)(F)F was T. brucei: 47.79%; Toxoplasma: -6.412%.
Result for O=C(NCCCNC(=O)c1ccc(F)cc1F)c1cccc(O)c1 was T. brucei: 3.874%; Toxoplasma: 23.95%.
Result for CCC1CN(CC(=O)N2CCCC2)CCN1CCOC (centres undefined) was T. brucei: -11.99%; Toxoplasma: -36.05%.
Result for CN1CCCC1CNC(=O)CCCOc1cccc(Br)c1 (centres undefined) was T. brucei: -1.157%; Toxoplasma: -1.319%.
Result for Cc1ccc(C(CNC(=O)NCc2ccccn2)N2CCOCC2)o1 (centres undefined) was Toxoplasma: 36.98%.
Result for CNC(=O)NC(=O)CN(Cc1ccc(C#N)cc1)Cc1cccc(F)c1 was T. brucei: 2.749%; Toxoplasma: 5.967%.
Result for CCCc1cc(C(=O)NCCCn2nnc3ccccc32)no1 was T. brucei: 4.667%; Toxoplasma: -13.7%.
Result for Cn1cnc2c1CCN(Cc1cccc(C(N)=O)c1)C2 was T. brucei: -29.75%; Toxoplasma: 1.729%.
Result for COc1ccc(C(O)CNc2c(C#N)c(=O)n(C)c(=O)n2C)cc1 (centres undefined) was T. brucei: -37.22%.

Some entries from above, unchanged:

Result for C=C(C)CSc1nnc(CCNC(=O)OC(C)(C)C)o1 was T. brucei: -23.85%; Toxoplasma: 11.55%.
Result for O=C(NCCCNC(=O)c1ccc(F)cc1F)c1cccc(O)c1 was T. brucei: 3.874%; Toxoplasma: 23.95%.